PMC10665321
These are yes or no findings as the source states them, for the method shown. Binding seen in cells or lysates may run through a third protein. Some binding calls cover weakened binding; strength is not graded here.

The chains behind the UniProt entries cited, without tags or fusion partners. Residues count along the entry.
UniProt P08207: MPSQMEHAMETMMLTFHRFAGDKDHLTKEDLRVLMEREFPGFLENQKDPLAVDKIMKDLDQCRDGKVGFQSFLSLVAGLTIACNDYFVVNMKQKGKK
UniProt Q01097, residues 27-1482: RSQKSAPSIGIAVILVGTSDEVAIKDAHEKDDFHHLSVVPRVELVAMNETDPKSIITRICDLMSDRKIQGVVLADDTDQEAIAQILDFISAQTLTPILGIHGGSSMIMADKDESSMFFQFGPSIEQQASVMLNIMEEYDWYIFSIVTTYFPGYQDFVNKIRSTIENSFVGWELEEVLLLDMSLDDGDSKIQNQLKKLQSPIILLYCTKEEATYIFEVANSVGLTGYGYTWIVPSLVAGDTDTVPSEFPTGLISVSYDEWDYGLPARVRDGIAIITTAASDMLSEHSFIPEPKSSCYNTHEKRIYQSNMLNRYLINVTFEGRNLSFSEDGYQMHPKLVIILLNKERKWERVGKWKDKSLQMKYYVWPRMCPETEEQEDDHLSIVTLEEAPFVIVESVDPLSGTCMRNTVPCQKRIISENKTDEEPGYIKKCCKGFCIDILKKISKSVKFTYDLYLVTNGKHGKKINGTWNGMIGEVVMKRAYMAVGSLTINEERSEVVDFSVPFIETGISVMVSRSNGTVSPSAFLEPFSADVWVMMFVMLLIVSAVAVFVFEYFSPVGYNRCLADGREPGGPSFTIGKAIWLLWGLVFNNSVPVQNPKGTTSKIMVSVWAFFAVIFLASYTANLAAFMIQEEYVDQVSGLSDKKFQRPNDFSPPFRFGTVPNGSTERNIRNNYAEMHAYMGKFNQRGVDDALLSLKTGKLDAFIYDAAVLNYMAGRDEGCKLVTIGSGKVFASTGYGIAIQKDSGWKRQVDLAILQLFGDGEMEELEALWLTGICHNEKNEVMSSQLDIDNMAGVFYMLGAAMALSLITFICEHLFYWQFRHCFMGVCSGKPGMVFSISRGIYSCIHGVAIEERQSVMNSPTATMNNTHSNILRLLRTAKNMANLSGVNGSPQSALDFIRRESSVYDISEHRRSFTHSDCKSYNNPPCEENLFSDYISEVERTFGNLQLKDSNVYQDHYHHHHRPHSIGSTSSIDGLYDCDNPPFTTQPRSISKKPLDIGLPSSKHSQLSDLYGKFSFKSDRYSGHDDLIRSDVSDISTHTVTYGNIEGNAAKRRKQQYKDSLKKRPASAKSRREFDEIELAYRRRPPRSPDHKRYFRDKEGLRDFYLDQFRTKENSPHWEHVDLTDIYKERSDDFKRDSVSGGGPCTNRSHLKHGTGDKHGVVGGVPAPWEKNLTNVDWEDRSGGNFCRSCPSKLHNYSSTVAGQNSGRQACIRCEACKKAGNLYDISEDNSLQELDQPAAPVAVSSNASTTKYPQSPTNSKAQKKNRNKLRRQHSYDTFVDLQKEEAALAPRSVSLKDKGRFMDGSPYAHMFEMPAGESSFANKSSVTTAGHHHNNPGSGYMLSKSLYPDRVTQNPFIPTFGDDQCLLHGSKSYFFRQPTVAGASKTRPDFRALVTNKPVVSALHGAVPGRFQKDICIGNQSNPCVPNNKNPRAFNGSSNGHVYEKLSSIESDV

Molecular target: p11 (S100A10) (mouse (endogenous in DRN)) (UniProt P08207)
Assay: co-IP; protein extracted from mouse DRN incubated with primary antibodies or control IgG overnight at 4 °C, protein A/G magnetic beads; immunoblotting

Substance	binding
GluN2A (from UniProt P35436 23-1464) (receptor)	binds
GluN2B (from UniProt Q01097 27-1482) (receptor)	binds
